{
  "source": "patent US6133299A",
  "about": "“Methods for treating neurodegenerative diseases and disorders using N-(2,6-disubstituted aromatic)-N'-pyridinyl ureas and other anticonvulsant compounds” (Warner-Lambert Company, priority 1993, dated 2000)",
  "origin": "cited, not measured here",
  "tested_on": "brain damage from global ischemia",
  "conditions": "rabbits; cited from earlier work",
  "data": [
    {"smiles": "CCN(CC)CC(=O)Nc1c(C)cccc1C", "note": "[Lidocaine, lidocaine]", "values": [
      {"measurement": "effect on brain damage from global ischemia", "value": "brain damage from global ischemia in rabbits is reduced"}
    ]}
  ]
}
